7 targets from the supplement of paper PMC10849652 can be followed below.

Sequences of proteins named here, by UniProt entry; tags and fusion partners are left off. A change or cut given only in a name is not applied to a line headed by its entry.
PIGBOS1, A0A0B4J2F0, UniProt A0A0B4J2F0, whole entry, looked up: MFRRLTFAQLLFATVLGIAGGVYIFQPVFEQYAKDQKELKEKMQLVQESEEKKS
UniProt O00264: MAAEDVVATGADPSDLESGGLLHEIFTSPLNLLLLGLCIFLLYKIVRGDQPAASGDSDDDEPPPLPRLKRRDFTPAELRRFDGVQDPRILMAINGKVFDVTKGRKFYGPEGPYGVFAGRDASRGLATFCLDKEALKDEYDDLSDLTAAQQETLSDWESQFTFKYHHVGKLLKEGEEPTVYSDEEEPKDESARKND
UniProt O15173: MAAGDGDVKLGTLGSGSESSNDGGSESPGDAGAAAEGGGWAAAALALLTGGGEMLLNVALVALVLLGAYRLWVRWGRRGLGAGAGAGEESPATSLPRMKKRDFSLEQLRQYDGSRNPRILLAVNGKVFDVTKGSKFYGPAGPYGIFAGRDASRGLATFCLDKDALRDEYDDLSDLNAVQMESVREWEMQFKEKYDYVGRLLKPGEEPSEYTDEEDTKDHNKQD
UniProt Q92643: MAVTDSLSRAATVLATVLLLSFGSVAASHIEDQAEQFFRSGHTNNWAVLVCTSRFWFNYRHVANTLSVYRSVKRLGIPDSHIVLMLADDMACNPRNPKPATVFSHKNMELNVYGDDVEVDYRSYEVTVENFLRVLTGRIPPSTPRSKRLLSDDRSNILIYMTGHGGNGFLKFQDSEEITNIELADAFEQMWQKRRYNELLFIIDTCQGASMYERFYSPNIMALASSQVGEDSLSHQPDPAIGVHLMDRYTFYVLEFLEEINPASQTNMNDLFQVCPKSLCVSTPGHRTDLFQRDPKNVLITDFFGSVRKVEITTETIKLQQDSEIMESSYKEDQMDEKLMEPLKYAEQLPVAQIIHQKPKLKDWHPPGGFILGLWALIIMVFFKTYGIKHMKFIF
UniProt P12273: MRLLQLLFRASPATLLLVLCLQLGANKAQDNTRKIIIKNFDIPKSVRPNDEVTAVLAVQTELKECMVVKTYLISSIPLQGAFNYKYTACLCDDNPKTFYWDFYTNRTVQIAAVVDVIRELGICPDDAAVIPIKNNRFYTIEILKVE
UniProt P07737, whole entry, looked up: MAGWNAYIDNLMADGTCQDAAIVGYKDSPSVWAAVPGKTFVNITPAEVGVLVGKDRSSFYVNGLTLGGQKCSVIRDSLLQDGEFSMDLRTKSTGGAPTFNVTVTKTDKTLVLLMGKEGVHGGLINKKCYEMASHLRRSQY

Some of the results follow.

Compound in this experiment: c1cn2cc(-c3ccc4cn[nH]c4c3)nc(Nc3ccc(N4CCOCC4)cc3)c2n1 [entospletinib]
Kind of experiment: log2 fold change, soluble protein after heating vs DMSO (PISA); higher = thermal stabilisation; K562 cells, 10 uM, 30 min; active = over 0.2 and 3.5 SD of the protein, either way, in both replicates (recomputed). The gist of the method:
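Soluble protein was quantified by TMTpro 16plex LC-MS/MS after channel sums were equalised. It was obtained as the supernatant after 21,000xg for 90 min from pooled aliquots of K562 cells (2×10^6 cells/mL, 10 μM compound, 30 min) heated for 3 min across 48°C-58°C and extracted in PBS with 0.5% NP-40 at 4°C. Thermal stability values are relative to control samples and come from duplicates. They are given as log2 fold changes.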
Consider PIGBOS1, A0A0B4J2F0, for which the log2 fold change is inactive: 0.105. Turning to PGRMC1 (UniProt O00264), the log2 fold change is inactive: 0.073. For the target PGRMC2 isoform 2 (UniProt O15173), the log2 fold change was inactive: 0.016. As for PIGK (UniProt Q92643), the log2 fold change was inactive: 0. With PIP (UniProt P12273), the log2 fold change was inactive: -0.231. For PFN1 (UniProt I3L3D5), the log2 fold change is inactive: 0.25. For the target PFN1 (UniProt P07737), the log2 fold change was inactive: -0.028.
